Library screen at single concentrations

Sequences of proteins named here, by UniProt entry; tags and fusion partners are left off. Residues count along the entry.
UniProt Q8IDJ8, 1-583: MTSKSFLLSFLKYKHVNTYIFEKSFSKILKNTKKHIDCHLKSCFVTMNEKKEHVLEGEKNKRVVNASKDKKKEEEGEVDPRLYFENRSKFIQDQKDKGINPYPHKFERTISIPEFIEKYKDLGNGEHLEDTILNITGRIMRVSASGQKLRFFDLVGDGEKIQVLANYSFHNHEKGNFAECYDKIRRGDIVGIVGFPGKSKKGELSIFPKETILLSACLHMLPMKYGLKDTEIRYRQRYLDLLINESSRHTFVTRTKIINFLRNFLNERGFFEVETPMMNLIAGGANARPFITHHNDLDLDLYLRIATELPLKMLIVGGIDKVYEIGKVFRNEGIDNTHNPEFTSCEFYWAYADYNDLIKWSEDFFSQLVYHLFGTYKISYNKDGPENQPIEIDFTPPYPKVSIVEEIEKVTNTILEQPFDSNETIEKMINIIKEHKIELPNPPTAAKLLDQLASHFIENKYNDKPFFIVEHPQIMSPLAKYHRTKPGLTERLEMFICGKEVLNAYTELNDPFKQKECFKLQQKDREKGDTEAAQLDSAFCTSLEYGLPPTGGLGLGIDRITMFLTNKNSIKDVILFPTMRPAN

Data taken from ChEMBL document CHEMBL3988442, “University of Dundee, Small-Polar-MMV Screening Library” (2021).

The filed quantity is “Percent Effect” (%).
The record does not define 0% and 100%; most values in the screen are far below 50% and negative numbers occur (in some assays of this library far below -100).
This is an unselected part of the compounds tested.

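Lysine-tRNA ligase, Plasmodium falciparum 3D7 (UniProt Q8IDJ8). Enzyme assay of the cytosolic lysyl-tRNA synthetase in 384-well plates, read by luminescence. Compounds at 30 µM. Higher reads as stronger inhibition, judged from the few compounds that gave an IC50. Size under these conditions: about 69,000 compounds, about 49 of them at 50% or above in at least one test.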

* CC(C)(C)c1noc(CCC(=O)NCC2CCS(=O)(=O)C2)n1 (centres undefined) | -1.715%
* Cc1ccnc(OC[C@@]23CCO[C@@H]2CCN(c2ncc(F)cn2)C3)n1 | 6.913%
* CCOC(C)c1noc(CN2CCCN(c3ccccn3)CC2)n1 (centres undefined) | -1.987%
* COc1cccc(F)c1CN1CCC(c2nc(C)cc(C)n2)C1 (centres undefined) | 0.1746%
* COc1ccc(C2SC(C)=Nc3c2c(=O)[nH]n3C2CCCCC2)cc1O (centres undefined) | 9.971%
* O=C(c1cccs1)N1CCN(Cc2cc(=O)c3ccccc3[nH]2)CC1 | 4.849%
* Cc1cc(C2NC(=O)CN2Cc2ccc(Br)cc2)cc(C)c1O (centres undefined) | -3.182%
* CCCc1nc(C)cc(N2CCC3(CCC(=O)N(C4CC4)C3)CC2)n1 | 3.993%
* CC(CNC(=O)Nc1ccc(F)cc1-n1cccc1)N1CCOCC1 (centres undefined) | 8.377%
* Cc1ccc(S(=O)(=O)NCCNC(=O)c2ccoc2)cc1C | 4.106%
* Cc1ccc(-n2ccnc2-c2cn(C3CCNCC3)nn2)c(Cl)c1 | 2.019%
* Cc1ccc2c(n1)N(CCN(C)C)CCN(C(=O)c1ccsc1)C2 | 3.192%
* Cc1nccn1CCCNc1nccnc1C#N | 2.412%
* CC1=N[C@@]2(CC[C@@H]3CN(C(=O)NCc4cccc(F)c4)C[C@@H]32)C(=O)N1 | 5.617%
* CCN(CC)C1CCN(c2nccc(C3CCCC3)n2)C1 (centres undefined) | 2.938%
* O=C(c1ccccn1)N1CCCC(c2nccn2Cc2ccncc2)C1 (centres undefined) | -0.3362%
* COc1ccc(C(=O)NCCc2nnc3ccccn23)c(OC)c1 | 1.324%
* CCOCC(=O)Nc1cc(-c2cccc(F)c2F)n[nH]1 | 1.15%
* CC(C)n1nc2c(cc1=O)CN(Cc1nc3ccccc3o1)CC2 | -0.2514%
* CC(C)NC(=O)C1CN(C(=O)NCc2ccccc2)CC12CCOCC2 (centres undefined) | 5.899%
* CC(C)Cc1ccc(C(=O)Cn2cnnc2[S+](C)[O-])cc1 (centres undefined) | 7.486%
* C[C@H](NC(=O)Cc1csc(-c2cccc(Cl)c2)n1)C(=O)O | -1.891%
* CCN(Cc1ccc2c(c1)OCO2)S(=O)(=O)N(C)C | 1.909%
* CCc1noc(C2CCCCN2C(=O)c2ccccc2)n1 (centres undefined) | 4.075%
* Cc1ccc(C)c(-n2ncc(C(=O)N(C)CCc3ccccn3)c2N)c1 | 4.99%
* CN(C)C[C@H]1OC[C@@H]2CCN(S(=O)(=O)c3ccccc3)C[C@@H]21 | 0.07124%
* Cc1nc(C)n(CC2CN(Cc3cccnc3)Cc3nccn3C2)n1 (centres undefined) | 1.599%
* CN(C)CC1CSCCCN1C(=O)c1ccsc1 (centres undefined) | -0.6421%
* Cc1ccc(CN2C[C@@H]3COC[C@]3(COc3ccc(C#N)cn3)C2)o1 | 6.623%
* O=C(c1cc[nH]n1)N1CCCC1c1cncc(CN2CCOCC2)n1 (centres undefined) | 0.5256%
* NC(=O)c1cc(CC2CCCN(Cc3cnccn3)CC2)ncn1 (centres undefined) | 1.187%
* CCc1cc(N[C@H](C(N)=O)C(C)C)n2nc(C)c(C)c2n1 | -0.2187%
* CC(C)CC(=O)N1CC(=O)N(CCc2ccccc2)CC(O)C1 (centres undefined) | 1.674%
* COCC[C@]1(O)CCN(Cc2nc(C(C)C)cs2)C[C@H]1C | 7.918%
* CS(=O)(=O)CCC(=O)N1CCC(c2ccc(F)c(F)c2)CC1 | 0.8467%
* Cc1ccccc1OCCCC(=O)N1CCCC(n2cncn2)C1 (centres undefined) | 1.76%

The last 4 entries again:

{"smiles": "CC(C)CC(=O)N1CC(=O)N(CCc2ccccc2)CC(O)C1", "stereo": "centres undefined", "percent effect": 1.674}
{"smiles": "COCC[C@]1(O)CCN(Cc2nc(C(C)C)cs2)C[C@H]1C", "percent effect": 7.918}
{"smiles": "CS(=O)(=O)CCC(=O)N1CCC(c2ccc(F)c(F)c2)CC1", "percent effect": 0.8467}
{"smiles": "Cc1ccccc1OCCCC(=O)N1CCCC(n2cncn2)C1", "stereo": "centres undefined", "percent effect": 1.76}